According to publication PMC7076256:
Results are given in words; binding and its absence hold for the method and conditions named. In cells and extracts the contact can be indirect. Binding calls can cover weak binding; strength is not graded here. Tags and fused reporters may be left off the sequences shown.

Tests used:
[1] = biological target: T1, Flag-SIRT2 (UniProt Q8IXJ6); test: co-IP; HEK293T cells cotransfected with a Flag-tagged and a Myc-tagged construct; immunoprecipitation with anti-Flag antibody, immunoblotting with antibodies against Myc and Flag
T1 sequence: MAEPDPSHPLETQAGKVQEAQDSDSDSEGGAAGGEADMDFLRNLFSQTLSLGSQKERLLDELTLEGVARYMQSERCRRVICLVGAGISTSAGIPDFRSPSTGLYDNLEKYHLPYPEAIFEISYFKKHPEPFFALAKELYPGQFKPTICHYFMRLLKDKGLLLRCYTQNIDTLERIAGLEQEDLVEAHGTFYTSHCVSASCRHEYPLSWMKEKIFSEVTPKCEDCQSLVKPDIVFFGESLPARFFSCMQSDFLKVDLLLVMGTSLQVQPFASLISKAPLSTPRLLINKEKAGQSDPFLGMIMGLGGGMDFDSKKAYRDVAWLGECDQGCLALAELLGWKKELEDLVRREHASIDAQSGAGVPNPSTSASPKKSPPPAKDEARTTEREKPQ

[2] = biological target: HRD1-Flag; test: as above

“N terminus of HRD1 containing the RING-finger domain (residues 1 to 337) (domain or fragment)” was tested, and the binding [1] was “binds”.

For HRD1-Myc, the binding [1] was “binds”.

B1: Myc-SIRT2 (protein, UniProt Q8IXJ6 1-389)
chain: MAEPDPSHPLETQAGKVQEAQDSDSDSEGGAAGGEADMDFLRNLFSQTLSLGSQKERLLDELTLEGVARYMQSERCRRVICLVGAGISTSAGIPDFRSPSTGLYDNLEKYHLPYPEAIFEISYFKKHPEPFFALAKELYPGQFKPTICHYFMRLLKDKGLLLRCYTQNIDTLERIAGLEQEDLVEAHGTFYTSHCVSASCRHEYPLSWMKEKIFSEVTPKCEDCQSLVKPDIVFFGESLPARFFSCMQSDFLKVDLLLVMGTSLQVQPFASLISKAPLSTPRLLINKEKAGQSDPFLGMIMGLGGGMDFDSKKAYRDVAWLGECDQGCLALAELLGWKKELEDLVRREHASIDAQSGAGVPNPSTSASPKKSPPPAKDEARTTEREKPQ
B1 was tested, and the binding [2] was “binds”.

B2: SIRT2 truncated mutant (residues 90 to 240) (domain or fragment, UniProt Q8IXJ6 90-240)
chain: SAGIPDFRSPSTGLYDNLEKYHLPYPEAIFEISYFKKHPEPFFALAKELYPGQFKPTICHYFMRLLKDKGLLLRCYTQNIDTLERIAGLEQEDLVEAHGTFYTSHCVSASCRHEYPLSWMKEKIFSEVTPKCEDCQSLVKPDIVFFGESLP
B2 was tested, and the binding [2] was “binds”.
